Results from the supplement of paper PMC4604168 (melanoma cell lines).
This is one part of the list. Single values are uncertain, as repeats are few or missing.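 Imaging used 1,536-well plates; nuclei positive for cleaved PARP by antibody were divided by total DNA-stained nuclei to yield the apoptosis fraction. Doses for screening kept most cells viable, and cell lines differ markedly in resting and induced cleaved-PARP levels.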

Tested on: G361
Assay: cleaved PARP positive nuclei fraction relative to DMSO control; melanoma cells; higher = more apoptosis
Settings: library dose: low library concentration; 72 h

| Compound | cleaved PARP positive nuclei fraction [%] |
| --- | --- |
| COc1ccc(C2=N[C@@H](c3ccc(Cl)cc3)[C@@H](c3ccc(Cl)cc3)N2C(=O)N2CCNC(=O)C2)c(OC(C)C)c1 [Nutlin-3] + C=CCn1c(=O)c2cnc(Nc3ccc(N4CCN(C)CC4)cc3)nc2n1-c1cccc(C(C)(C)O)n1 [MK1775] (first compound 0.1 µM, partner dose 0.02 µM) | 68.6 |
| Cn1sc(=O)n(Cc2ccccc2)c1=O + CO[C@@H]1[C@H](N(C)C(=O)c2ccccc2)C[C@H]2O[C@]1(C)n1c3ccccc3c3c4c(c5c6ccccc6n2c5c31)C(=O)NC4 [Midostaurin] (first compound 0.4 µM, partner dose 0.08 µM) | 204 |
| Cn1cnc2c(F)c(Nc3ccc(Br)cc3Cl)c(C(=O)NOCCO)cc21 [selumetinib] + Cc1cc(N2CCOCC2)cc2[nH]c(-c3c(NC[C@@H](O)c4cccc(Cl)c4)cc[nH]c3=O)nc12 [BMS536924] (first compound 0.015 µM, partner dose 0.2 µM) | 186 |
| CC(=O)O[C@@]12CO[C@@H]1C[C@H](O)[C@@]1(C)C(=O)[C@H](O)C3=C(C)[C@@H](OC(=O)[C@H](O)[C@@H](NC(=O)OC(C)(C)C)c4ccccc4)C[C@@](O)([C@@H](OC(=O)c4ccccc4)[C@H]21)C3(C)C [Docetaxel] + O=C(CCCCCCC(=O)Nc1ccccc1)NO [vorinostat] (first compound 0.0001 µM, partner dose 0.08 µM) | 1070 |
| C[C@]1(O)C[C@@H](c2nc(-c3ccc4ccc(-c5ccccc5)nc4c3)c3c(N)nccn32)C1 + CO[C@@H]1[C@H](N(C)C(=O)c2ccccc2)C[C@H]2O[C@]1(C)n1c3ccccc3c3c4c(c5c6ccccc6n2c5c31)C(=O)NC4 [Midostaurin] (first compound 0.4 µM, partner dose 0.08 µM) | 70.1 |
| CS(=O)(=O)c1ccc(C(=O)Nc2ccc(Cl)c(-c3ccccn3)c2)c(Cl)c1 [vismodegib] + NC(=O)Nc1cc(-c2cccc(F)c2)sc1C(=O)N[C@H]1CCCNC1 [AZD7762] (first compound 1 µM, partner dose 0.02 µM) | 82.6 |
| CC(=O)O[C@@]12CO[C@@H]1C[C@H](O)[C@@]1(C)C(=O)[C@H](O)C3=C(C)[C@@H](OC(=O)[C@H](O)[C@@H](NC(=O)OC(C)(C)C)c4ccccc4)C[C@@](O)([C@@H](OC(=O)c4ccccc4)[C@H]21)C3(C)C [Docetaxel] + CO[C@@H]1[C@H](N(C)C(=O)c2ccccc2)C[C@H]2O[C@]1(C)n1c3ccccc3c3c4c(c5c6ccccc6n2c5c31)C(=O)NC4 [Midostaurin] (first compound 0.0001 µM, partner dose 0.08 µM) | 475 |
| CC(=O)O[C@@]12CO[C@@H]1C[C@H](O)[C@@]1(C)C(=O)[C@H](O)C3=C(C)[C@@H](OC(=O)[C@H](O)[C@@H](NC(=O)OC(C)(C)C)c4ccccc4)C[C@@](O)([C@@H](OC(=O)c4ccccc4)[C@H]21)C3(C)C [Docetaxel] + Cc1ccc(NC(=O)c2cccc(N(C)C)c2)cc1NC(=O)c1ccc(O)cc1 [ZM336372] (first compound 0.0001 µM, partner dose 2 µM) | 515 |
| Cn1sc(=O)n(Cc2ccccc2)c1=O + NC(=O)Nc1cc(-c2cccc(F)c2)sc1C(=O)N[C@H]1CCCNC1 [AZD7762] (first compound 0.4 µM, partner dose 0.02 µM) | 113 |
| C[C@@H](N)c1ccc(C(=O)Nc2ccnc3[nH]ccc23)cc1 + O=C(O)c1ccc(-c2c[nH]c3ncc(-c4ccccc4)cc23)cc1C1CCCC1 [GSK650394] (first compound 0.4 µM, partner dose 0.16 µM) | 86.7 |
| NC1(c2ccc(-c3nc4ccn5c(=O)[nH]nc5c4cc3-c3ccccc3)cc2)CCC1 + NC(=O)Nc1cc(-c2cccc(F)c2)sc1C(=O)N[C@H]1CCCNC1 [AZD7762] (first compound 0.4 µM, partner dose 0.02 µM) | 66.4 |
| COc1ccc(C2=N[C@@H](c3ccc(Cl)cc3)[C@@H](c3ccc(Cl)cc3)N2C(=O)N2CCNC(=O)C2)c(OC(C)C)c1 [Nutlin-3] + COc1cc2c(Oc3ccc4[nH]c(C)cc4c3F)ncnc2cc1OCCCN1CCCC1 [cediranib] (first compound 0.1 µM, partner dose 0.4 µM) | 93.6 |
| Cn1cnc2c(F)c(Nc3ccc(Br)cc3Cl)c(C(=O)NOCCO)cc21 [selumetinib] + CC1(C)NC(=O)N(c2ccc([N+](=O)[O-])c(C(F)(F)F)c2)C1=O [nilutamide] (first compound 0.015 µM, partner dose 1 µM) | 124 |
| NC(=O)c1ccc(N(C(N)=O)c2c(F)cccc2F)nc1-c1ccc(F)cc1F + Cc1ccc(NC(=O)c2cccc(N(C)C)c2)cc1NC(=O)c1ccc(O)cc1 [ZM336372] (first compound 0.4 µM, partner dose 2 µM) | 113 |
| CC1(C)CCC(c2ccc(Cl)cc2)=C(CN2CCN(c3ccc(C(=O)NS(=O)(=O)c4ccc(N[C@H](CCN5CCOCC5)CSc5ccccc5)c(S(=O)(=O)C(F)(F)F)c4)cc3)CC2)C1 + CN(NC(=O)CC(=O)NN(C)C(=S)c1ccccc1)C(=S)c1ccccc1 [STA4783] (first compound 0.4 µM, partner dose 0.006 µM) | 164 |
| Cn1cnc2c(F)c(Nc3ccc(Br)cc3Cl)c(C(=O)NOCCO)cc21 [selumetinib] + NCC(=O)Nc1ccc(-n2nc(C(F)(F)F)cc2-c2ccc3c(ccc4ccccc43)c2)cc1 [OSU03012] (first compound 0.015 µM, partner dose 1 µM) | 133 |
| CC1(C)CCC(c2ccc(Cl)cc2)=C(CN2CCN(c3ccc(C(=O)NS(=O)(=O)c4ccc(N[C@H](CCN5CCOCC5)CSc5ccccc5)c(S(=O)(=O)C(F)(F)F)c4)cc3)CC2)C1 + CC1(C)NC(=O)N(c2ccc([N+](=O)[O-])c(C(F)(F)F)c2)C1=O [nilutamide] (first compound 0.4 µM, partner dose 1 µM) | 159 |
| CC1(C)CCC(c2ccc(Cl)cc2)=C(CN2CCN(c3ccc(C(=O)NS(=O)(=O)c4ccc(N[C@H](CCN5CCOCC5)CSc5ccccc5)c(S(=O)(=O)C(F)(F)F)c4)cc3)CC2)C1 + COc1cc(Nc2ncc(F)c(Nc3ccc4c(n3)NC(=O)C(C)(C)O4)n2)cc(OC)c1OC [Tamatinib] (first compound 0.4 µM, partner dose 0.4 µM) | 72.8 |
| CCCCCCCCc1ccc(CCC(N)(CO)CO)cc1 [fingolimod] + OCCn1cc(-c2cnc3nnn(Cc4ccc5ncccc5c4)c3n2)cn1 [PF04217903] (first compound 2 µM, partner dose 1 µM) | 73.2 |
| C[C@]1(O)C[C@@H](c2nc(-c3ccc4ccc(-c5ccccc5)nc4c3)c3c(N)nccn32)C1 + COc1cc(Nc2ncc(F)c(Nc3ccc4c(n3)NC(=O)C(C)(C)O4)n2)cc(OC)c1OC [Tamatinib] (first compound 0.4 µM, partner dose 0.4 µM) | 142 |
| CCN(CC)CCNC(=O)c1c(C)[nH]c(/C=C2\C(=O)Nc3ccc(F)cc32)c1C [sunitinib] + O=C(Nc1cccc(Cl)c1)Nc1ncc(CCNc2ncnc3ccsc23)s1 [SNS314] (first compound 0.4 µM, partner dose 0.0008 µM) | 138 |
| NC1(c2ccc(-c3nc4ccn5c(=O)[nH]nc5c4cc3-c3ccccc3)cc2)CCC1 + O=C(Nc1cccc(Cl)c1)Nc1ncc(CCNc2ncnc3ccsc23)s1 [SNS314] (first compound 0.4 µM, partner dose 0.0008 µM) | 63.1 |
| C[C@@H](N)c1ccc(C(=O)Nc2ccnc3[nH]ccc23)cc1 + C[C@@H]1CCN(C(=O)CC#N)C[C@@H]1N(C)c1ncnc2[nH]ccc12 [CP690550] (first compound 0.4 µM, partner dose 1 µM) | 59.7 |
| CN(c1ncccc1CNc1nc(Nc2ccc3c(c2)CC(=O)N3)ncc1C(F)(F)F)S(C)(=O)=O + NC(=O)Nc1cc(-c2cccc(F)c2)sc1C(=O)N[C@H]1CCCNC1 [AZD7762] (first compound 0.08 µM, partner dose 0.02 µM) | 73.1 |
| C[C@@H](N)c1ccc(C(=O)Nc2ccnc3[nH]ccc23)cc1 + Cc1cc(N2CCOCC2)cc2[nH]c(-c3c(NC[C@@H](O)c4cccc(Cl)c4)cc[nH]c3=O)nc12 [BMS536924] (first compound 0.4 µM, partner dose 0.2 µM) | 153 |
| NC1(c2ccc(-c3nc4ccn5c(=O)[nH]nc5c4cc3-c3ccccc3)cc2)CCC1 + CC(C)(C)c1cnc(CSc2cnc(NC(=O)C3CCNCC3)s2)o1 [SNS-032] (first compound 0.4 µM, partner dose 0.01 µM) | 18 |
| C[C@]1(O)C[C@@H](c2nc(-c3ccc4ccc(-c5ccccc5)nc4c3)c3c(N)nccn32)C1 + NC(=O)Nc1cc(-c2cccc(F)c2)sc1C(=O)N[C@H]1CCCNC1 [AZD7762] (first compound 0.4 µM, partner dose 0.02 µM) | 92.5 |
| CCN(CC)CCNC(=O)c1c(C)[nH]c(/C=C2\C(=O)Nc3ccc(F)cc32)c1C [sunitinib] + C=CCn1c(=O)c2cnc(Nc3ccc(N4CCN(C)CC4)cc3)nc2n1-c1cccc(C(C)(C)O)n1 [MK1775] (first compound 0.4 µM, partner dose 0.02 µM) | 82.3 |

Quoted at random: 2 entries already listed

| Compound | cleaved PARP positive nuclei fraction [%] |
| --- | --- |
| Cn1cnc2c(F)c(Nc3ccc(Br)cc3Cl)c(C(=O)NOCCO)cc21 [selumetinib] + CC1(C)NC(=O)N(c2ccc([N+](=O)[O-])c(C(F)(F)F)c2)C1=O [nilutamide] (first compound 0.015 µM, partner dose 1 µM) | 124 |
| C[C@]1(O)C[C@@H](c2nc(-c3ccc4ccc(-c5ccccc5)nc4c3)c3c(N)nccn32)C1 + COc1cc(Nc2ncc(F)c(Nc3ccc4c(n3)NC(=O)C(C)(C)O4)n2)cc(OC)c1OC [Tamatinib] (first compound 0.4 µM, partner dose 0.4 µM) | 142 |
